These are yes or no findings as the source states them, for the method shown. In cells and extracts the contact can be indirect. Some results given as binding are weak or reduced against the parent protein; the word gives no strength.
Tests used:
[1] = target: ROCK2 (rat (endogenous in Wistar rat heart)) (UniProt Q62868); assay: co-IP; 500 µg protein from control and diabetic rat hearts (untreated or perfused with 1 µM H-1152) incubated with anti-PKCβ2 or anti-ROCK2 antibody cross-linked to agarose resin (Pierce); Western blot of the precipitate
[2] = target: Protein kinase C β2 (rat (endogenous in Wistar rat heart)) (UniProt P68403); assay: as above

The chains behind the UniProt entries cited, without tags or fusion partners. Where a name states a change or a piece, a line headed by the entry shows the natural chain unless it says otherwise. A line that says so, or that is headed by a name, gives the form on record, which may keep a tag or linker.
UniProt Q62868: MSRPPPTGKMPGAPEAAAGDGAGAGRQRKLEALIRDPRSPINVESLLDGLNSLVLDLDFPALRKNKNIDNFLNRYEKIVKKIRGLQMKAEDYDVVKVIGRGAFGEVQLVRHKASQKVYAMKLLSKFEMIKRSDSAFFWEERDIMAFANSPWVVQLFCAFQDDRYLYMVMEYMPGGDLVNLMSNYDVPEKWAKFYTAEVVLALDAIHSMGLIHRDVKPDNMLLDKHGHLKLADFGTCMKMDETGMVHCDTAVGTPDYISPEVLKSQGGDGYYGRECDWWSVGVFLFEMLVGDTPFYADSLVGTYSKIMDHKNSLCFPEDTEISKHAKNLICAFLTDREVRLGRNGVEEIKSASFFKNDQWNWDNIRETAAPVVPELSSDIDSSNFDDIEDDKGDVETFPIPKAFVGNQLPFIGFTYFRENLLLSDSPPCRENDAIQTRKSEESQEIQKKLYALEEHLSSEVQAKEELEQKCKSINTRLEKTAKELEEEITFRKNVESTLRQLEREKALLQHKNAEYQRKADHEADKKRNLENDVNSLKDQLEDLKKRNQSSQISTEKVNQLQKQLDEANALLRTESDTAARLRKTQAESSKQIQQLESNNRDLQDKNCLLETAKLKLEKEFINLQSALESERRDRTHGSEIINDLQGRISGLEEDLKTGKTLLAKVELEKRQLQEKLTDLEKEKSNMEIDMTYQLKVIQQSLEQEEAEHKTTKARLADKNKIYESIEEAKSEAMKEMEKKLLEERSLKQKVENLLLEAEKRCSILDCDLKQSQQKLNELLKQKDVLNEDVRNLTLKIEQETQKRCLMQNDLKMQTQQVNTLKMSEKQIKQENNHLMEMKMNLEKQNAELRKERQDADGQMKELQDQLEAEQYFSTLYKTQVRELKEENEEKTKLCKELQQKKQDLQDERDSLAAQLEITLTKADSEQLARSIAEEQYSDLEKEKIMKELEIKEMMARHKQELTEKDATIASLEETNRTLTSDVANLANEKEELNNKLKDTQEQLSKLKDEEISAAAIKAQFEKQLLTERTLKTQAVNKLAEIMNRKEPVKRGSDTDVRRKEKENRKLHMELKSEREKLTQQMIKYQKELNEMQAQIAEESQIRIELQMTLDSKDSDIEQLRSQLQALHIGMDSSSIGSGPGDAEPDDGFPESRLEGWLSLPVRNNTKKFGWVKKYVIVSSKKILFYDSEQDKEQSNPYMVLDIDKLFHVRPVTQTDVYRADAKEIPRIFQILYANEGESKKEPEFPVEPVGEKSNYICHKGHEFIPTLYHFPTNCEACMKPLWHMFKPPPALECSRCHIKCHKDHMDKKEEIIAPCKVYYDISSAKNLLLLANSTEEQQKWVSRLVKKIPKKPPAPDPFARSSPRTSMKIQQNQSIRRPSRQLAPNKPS
Protein kinase C β2 (rat (endogenous in Wistar rat heart)) (P68403-2, form named): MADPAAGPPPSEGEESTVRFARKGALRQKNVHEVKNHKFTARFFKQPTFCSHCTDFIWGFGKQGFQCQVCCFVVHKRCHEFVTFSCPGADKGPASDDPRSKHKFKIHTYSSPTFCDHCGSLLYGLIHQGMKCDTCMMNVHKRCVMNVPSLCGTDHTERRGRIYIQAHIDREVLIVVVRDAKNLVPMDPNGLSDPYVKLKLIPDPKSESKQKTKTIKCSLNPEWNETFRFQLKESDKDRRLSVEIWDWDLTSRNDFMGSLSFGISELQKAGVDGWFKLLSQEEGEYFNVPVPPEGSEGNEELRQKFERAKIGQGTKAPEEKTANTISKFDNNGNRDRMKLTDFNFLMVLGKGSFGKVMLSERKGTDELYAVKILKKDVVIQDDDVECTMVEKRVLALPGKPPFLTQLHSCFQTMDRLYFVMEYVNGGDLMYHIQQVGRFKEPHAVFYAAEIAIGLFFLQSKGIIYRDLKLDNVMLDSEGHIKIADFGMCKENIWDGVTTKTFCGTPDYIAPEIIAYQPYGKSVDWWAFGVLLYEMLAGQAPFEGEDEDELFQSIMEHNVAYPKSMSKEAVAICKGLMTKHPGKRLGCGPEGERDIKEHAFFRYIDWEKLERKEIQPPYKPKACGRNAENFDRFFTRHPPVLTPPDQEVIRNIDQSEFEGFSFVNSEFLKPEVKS

Row | binding [1] | binding [2] | Substance
1 | binds |  | Protein kinase C β2 (from UniProt P68403-2 1-673) (enzyme)
2 |  | binds | ROCK2 (from UniProt Q62868 1-1388) (enzyme)

— article PMC3896488
